# Where a name gives a salt, the structure may show the parent alone. ± gives the standard deviation of the averaged measurements. The list shows a part of the results. These are raw signals, not scaled to a control.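 Across three biological replicates, HeLa cells were imaged for ribosome assembly using ENP1 staining (export block present or absent) or inducible tagged ribosomal protein reporters. Machine learning classified each cell's signal localization relative to DMSO controls. Hits exceeded the DMSO false-positive mean by five standard deviations and were then visually confirmed.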
# Test system: HeLa K (ENP1 immunofluorescence, +LMB)
# Experiment: fraction of cells with nucleolar or nucleolar/nucleoplasmic ENP1 signal (MainHitrate); higher = more cells with nucleolar/nuclear readout signal (for ENP1 -LMB: less RNAPI inhibition; for +LMB ENP1 and RP reporters: stronger nuclear/nucleolar retention, i.e. ribosome biogenesis defect)
# Details: concentration: 1 µM; treatment time: 6 h; ENP1 +LMB; leptomycin B: 20 nM, last 1.5 h
row,SMILES,fraction
1,C1N2CN3CN1CN(C2)C3 [Methenamine (Mandelamine)],0.182 ± 0.28
2,O=P(O)(O)C(O)(Cc1cccnc1)P(=O)(O)O [Risedronic acid (Actonel)],0.119 ± 0.16
3,C#C[C@]1(O)CC[C@H]2[C@@H]3CCC4=CC(=O)CC[C@@H]4[C@H]3CC[C@@]21C [norethindrone],0.0473 ± 0.057
4,O=C(O)c1cc(/N=N/c2ccc(O)c(C(=O)O)c2)ccc1O [olsalazine sodium],0.09 ± 0.11
5,NCCCCCC(=O)O [Aminocaproic acid (Amicar)],0.0675 ± 0.039
6,CCc1nc(N)nc(N)c1-c1ccc(Cl)cc1 [Pyrimethamine],0.105 ± 0.14
7,C[C@]12C=CC(=O)C=C1CC[C@@H]1[C@@H]2[C@@H](O)C[C@@]2(C)[C@H]1CC[C@]2(O)C(=O)CO [Prednisolone (Hydroretrocortine)],0.162 ± 0.14
8,CCOc1nc2cccc(C(=O)O)c2n1Cc1ccc(-c2ccccc2-c2nnn[nH]2)cc1 [Candesartan (Atacand)],0.095 ± 0.096
9,O=C(NC(Cc1cc(=O)[nH]c2ccccc12)C(=O)O)c1ccc(Cl)cc1 (stereo unspecified) [Rebamipide],0.143 ± 0.22
10,O=C(Nc1ccccc1)c1ccccc1O [Salicylanilide],0.0445 ± 0.057
11,OC(CCN1CCCC1)(c1ccccc1)C1CCCCC1 (stereo unspecified) [Procyclidine HCl],0.0984 ± 0.12
12,Cc1cccc(C)c1OCC(=O)N[C@@H](Cc1ccccc1)[C@@H](O)C[C@H](Cc1ccccc1)NC(=O)[C@H](C(C)C)N1CCCNC1=O [Lopinavir (ABT-378)],0.109 ± 0.13

# Test system: HeLa K (ENP1 immunofluorescence, no LMB)
# Experiment: as above
# Details: concentration: 1 µM; treatment time: 6 h; ENP1 -LMB; leptomycin B: none
row,SMILES,fraction
1,CC1(C)O[C@@H]2C[C@H]3[C@@H]4CCC5=CC(=O)C=C[C@]5(C)[C@H]4[C@@H](O)C[C@]3(C)[C@]2(C(=O)CO)O1 [Desonide],0.9985 ± 0.0027
2,Cc1ncc(C[n+]2csc(CCO)c2C)c(N)n1 [Thiamine HCl (Vitamin B1)],0.982 ± 0.032
3,CCCOc1ccc(C(=O)OCCN(CC)CC)cc1N [Proparacaine HCl],0.985 ± 0.025
4,NC[C@@H]1O[C@H](O[C@H]2[C@@H](O)[C@H](O[C@@H]3[C@@H](O)[C@H](N)C[C@H](N)[C@H]3O[C@H]3O[C@H](CO)[C@@H](O)[C@H](O)[C@H]3N)O[C@@H]2CO)[C@H](N)[C@@H](O)[C@@H]1O [Paromomycin Sulfate],0.987 ± 0.023
5,C[C@@H]1C(=O)O[C@H]2C[C@@]34[C@H]5C[C@@H](C(C)(C)C)[C@]36[C@@H](OC(=O)[C@@H]6O)O[C@@]4(C(=O)O5)[C@]21O [Ginkgolide A],0.989 ± 0.02
6,CC(C)C(=O)Oc1ccc(CO)cc1[C@H](CCN(C(C)C)C(C)C)c1ccccc1 [Fesoterodine fumarate (Toviaz)],0.99 ± 0.018
7,CC(COc1ccccc1)N(CCCl)Cc1ccccc1 (stereo unspecified) [Phenoxybenzamine HCl],0.994 ± 0.011
8,CCc1c2c(nc3ccc(OC(=O)N4CCC(N5CCCCC5)CC4)cc13)-c1cc3c(c(=O)n1C2)COC(=O)[C@]3(O)CC [Irinotecan HCl Trihydrate (Campto)],0.985 ± 0.026
9,Cc1ccc(NC(=O)c2ccc(CN3CCN(C)CC3)cc2)cc1Nc1nccc(-c2cccnc2)n1 [Imatinib (Gleevec)],0.9946 ± 0.0094
10,O=C(O)c1cn(-c2ccc(F)cc2)c2cc(N3CCNCC3)c(F)cc2c1=O [Sarafloxacin HCl],0.99 ± 0.017
11,CN1CCc2cccc3c2[C@H]1Cc1ccc(O)c(O)c1-3 [R-(-)-Apomorphine HCl Hemihydrate],0.994 ± 0.011
12,CC[C@H]1OC(=O)C[C@@H](O)[C@H](C)[C@@H](O[C@@H]2O[C@H](C)[C@@H](O)[C@H](N(C)C)[C@H]2O)[C@@H](CCN2C[C@H](C)C[C@H](C)C2)C[C@@H](C)C(=O)/C=C/C(C)=C/[C@@H]1CO[C@@H]1O[C@H](C)[C@@H](O)[C@@H](OC)[C@H]1OC [Tilmicosin],0.99 ± 0.017
13,NC12CC3CC(CC(C3)C1)C2 [Amantadine hydrochloride (Symmetrel)],0.985 ± 0.025
14,Cc1cn(-c2cc(NC(=O)c3ccc(C)c(Nc4nccc(-c5cccnc5)n4)c3)cc(C(F)(F)F)c2)cn1 [Nilotinib (AMN-107)],0.9974 ± 0.0045
15,CC1=C(/C=C/C(C)=C/C=C/C(C)=C\C(=O)O)C(C)(C)CCC1 [Isotretinoin],0.9994 ± 0.0011
16,CC[C@H]1OC(=O)C[C@@H](O)[C@H](C)[C@@H](O[C@@H]2O[C@H](C)[C@@H](O[C@H]3C[C@@](C)(O)[C@@H](O)[C@H](C)O3)[C@H](N(C)C)[C@H]2O)[C@@H](CC=O)C[C@@H](C)C(=O)/C=C/C(C)=C/[C@@H]1CO[C@@H]1O[C@H](C)[C@@H](O)[C@@H](OC)[C@H]1OC [Tylosin tartrate],0.991 ± 0.016
17,CN1CCOC(c2ccccc2)c2ccccc2C1 (stereo unspecified) [Nefopam HCl],0.985 ± 0.025
18,CCCCNC(=O)NS(=O)(=O)c1ccc(C)cc1 [Tolbutamide],0.991 ± 0.016
19,NS(=O)(=O)c1cc2c(cc1Cl)N=CNS2(=O)=O [Chlorothiazide],0.9984 ± 0.0027
20,CN(Cc1cnc2nc(N)nc(N)c2n1)c1ccc(C(=O)N[C@@H](CCC(=O)O)C(=O)O)cc1 [Abitrexate (Methotrexate)],0.9979 ± 0.0036

row,SMILES,fraction
1,CCOC(=O)[C@H](CCc1ccccc1)N[C@H]1CS[C@H](c2cccs2)CN(CC(=O)O)C1=O [Temocapril HCl],0.9959 ± 0.007
2,O=C(Nc1ccc([N+](=O)[O-])cc1Cl)c1cc(Cl)ccc1O [Niclosamide (Niclocide)],0.968 ± 0.056
3,CCCCCCCCCCCC[N+](C)(C)CCOc1ccccc1 [Domiphen Bromide],0.993 ± 0.013
4,O=c1[nH]c(=O)n([C@H]2C[C@H](O)[C@@H](CO)O2)cc1F [Floxuridine],0.9988 ± 0.0022
5,CCN1CCN(c2cc(-c3ccc(F)cc3)c3c(n2)CCCCCC3)CC1 [Blonanserin (Lonasen)],0.991 ± 0.016
6,O=C(Oc1ccccc1C(=O)O)c1ccccc1O [Sasapyrine],0.987 ± 0.022
7,Nc1nc(Cl)nc2c1ncn2[C@H]1C[C@H](O)[C@@H](CO)O1 [Cladribine],0.994 ± 0.011
8,C1N2CN3CN1CN(C2)C3 [Methenamine (Mandelamine)],0.987 ± 0.022
9,O=P(O)(O)C(O)(Cc1cccnc1)P(=O)(O)O [Risedronic acid (Actonel)],0.9956 ± 0.0077
10,C#C[C@]1(O)CC[C@H]2[C@@H]3CCC4=CC(=O)CC[C@@H]4[C@H]3CC[C@@]21C [norethindrone],0.988 ± 0.021
11,O=C(O)c1cc(/N=N/c2ccc(O)c(C(=O)O)c2)ccc1O [olsalazine sodium],0.982 ± 0.032
12,NCCCCCC(=O)O [Aminocaproic acid (Amicar)],0.9982 ± 0.0032
13,CCc1nc(N)nc(N)c1-c1ccc(Cl)cc1 [Pyrimethamine],0.991 ± 0.015
14,C[C@]12C=CC(=O)C=C1CC[C@@H]1[C@@H]2[C@@H](O)C[C@@]2(C)[C@H]1CC[C@]2(O)C(=O)CO [Prednisolone (Hydroretrocortine)],0.9989 ± 0.002
15,CCOc1nc2cccc(C(=O)O)c2n1Cc1ccc(-c2ccccc2-c2nnn[nH]2)cc1 [Candesartan (Atacand)],0.9977 ± 0.004
16,O=C(NC(Cc1cc(=O)[nH]c2ccccc12)C(=O)O)c1ccc(Cl)cc1 (stereo unspecified) [Rebamipide],0.987 ± 0.023
17,O=C(Nc1ccccc1)c1ccccc1O [Salicylanilide],0.984 ± 0.028
18,OC(CCN1CCCC1)(c1ccccc1)C1CCCCC1 (stereo unspecified) [Procyclidine HCl],0.9976 ± 0.0041
19,Cc1cccc(C)c1OCC(=O)N[C@@H](Cc1ccccc1)[C@@H](O)C[C@H](Cc1ccccc1)NC(=O)[C@H](C(C)C)N1CCCNC1=O [Lopinavir (ABT-378)],0.9991 ± 0.0015
